What all share (test): two-hybrid
Assay [1] addresses StTGA2.1 (mini-TGA), yeast two-hybrid fusion (potato (Solanum tuberosum L.), cultivar Rywal).
Assay [2] addresses StTGA2.2, yeast two-hybrid bait fusion (potato (Solanum tuberosum L.), cultivar Rywal).
The target in assay [3] is StTGA2.3, yeast two-hybrid bait fusion (potato (Solanum tuberosum L.), cultivar Rywal).

Amino acid sequences for entries named in this document (tags omitted). A change or cut given only in a name is not applied to a line headed by its entry.
UniProt A0A9F1U434: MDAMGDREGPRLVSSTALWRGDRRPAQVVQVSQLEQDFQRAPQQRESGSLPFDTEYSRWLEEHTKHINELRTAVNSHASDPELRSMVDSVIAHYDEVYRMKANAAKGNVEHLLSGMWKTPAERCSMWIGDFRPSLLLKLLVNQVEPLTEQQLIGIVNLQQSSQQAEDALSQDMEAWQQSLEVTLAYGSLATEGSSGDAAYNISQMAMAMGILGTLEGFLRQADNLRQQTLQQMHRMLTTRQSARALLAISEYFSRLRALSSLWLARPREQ

No constants are given. Whether binding was seen depends on the method and setting. A result given as binding can be weak or reduced; the word gives no strength.

For the substance “StNPR1, yeast two-hybrid fusion (from UniProt A0A9F1UC91)”, the binding entry in assay [1], in assay [2] and in assay [3] was “binds” in each case.

Take “StTGA2.1 (mini-TGA), yeast two-hybrid fusion (from UniProt A0A9F1U434)”: the binding entry in assay [2] and in assay [3] was “binds” each time.

(Values after doi:10.1101/2022.03.30.486221 (bioRxiv, 2022).)
